Reference: paper PMC7819943, “Rice protein-binding microarrays: a tool to detect cis-acting elements near promoter regions in rice”
This is one part of the list.

Molecular target: T1, OsSMF1 (Oryza sativa, UniProt Q6ZLB0 1-436)
T1 sequence: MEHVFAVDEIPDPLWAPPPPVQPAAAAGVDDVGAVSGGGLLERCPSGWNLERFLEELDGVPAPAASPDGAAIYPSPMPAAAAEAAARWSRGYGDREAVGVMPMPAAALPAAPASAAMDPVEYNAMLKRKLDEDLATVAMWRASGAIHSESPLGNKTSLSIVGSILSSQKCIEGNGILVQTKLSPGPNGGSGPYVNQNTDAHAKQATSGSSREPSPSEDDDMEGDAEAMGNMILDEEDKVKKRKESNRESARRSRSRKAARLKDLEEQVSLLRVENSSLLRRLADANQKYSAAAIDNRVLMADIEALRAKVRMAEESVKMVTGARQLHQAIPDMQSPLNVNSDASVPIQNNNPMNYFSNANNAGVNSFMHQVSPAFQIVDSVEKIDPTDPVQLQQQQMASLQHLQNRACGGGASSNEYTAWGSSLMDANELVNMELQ
Assay: protein-binding microarray (RPBM); PBS, 2% BSA, 51.3 ng/ul salmon testes DNA, 50 uM zinc acetate, 200 nM TF, 25 C, 1 h; high values mean tight binding
Settings: protein: recombinant; tags: N-terminal polyhistidine and DsRed monomer fusion (pET32a); chain copies: 2; label: CyDye5-dUTP incorporated in the synthesized complementary strand; 3' TTTTT single-stranded linker to array surface; dsDNA, one strand shown
In short: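 Transcription factors were each fused at the N-terminus to a polyhistidine tag plus DsRed and expressed in E. coli BL21-CodonPlus before Ni–NTA purification. Binding to a double-stranded custom Agilent array was carried out with 200 nM protein at 25 °C for 1 h in PBS, 2% BSA, salmon testes DNA and 50 µM zinc acetate. The binding signal is per-feature fluorescence intensity, in arbitrary units, on an Axon 4000B scanner.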

Q: For “TCCAAGAAAGAAAGGAGAATTATCCGGCAGTTTCAGAGGTCGGAGTCACCTAGTGCAG”, which binding signal is on record?
A: 22200 fluorescence intensity (a.u.)

Q: With “GGTAGCCCCATTGACCTTCCACCTGAATCACCCATTGAGCCGGAGTCACCTAGTGCAG” as the sequence, how does the binding signal read?
A: 3810 fluorescence intensity (a.u.)

Q: How did the binding signal turn out when “CAGGATGCCACGTCAGCGCCCTCTATCTCTTTCCCCTCCTCGGAGTCACCTAGTGCAG” was run?
A: 51300 fluorescence intensity (a.u.)

Q: For “GTGAGACAAAGTATTCCACGTTGTGGGGACCCACGTGACACGGAGTCACCTAGTGCAG”, which binding signal is on record?
A: 3750 fluorescence intensity (a.u.)

Q: Which binding signal does the source give for “CCCAGCTGTCTTTCCTCCAGGTCACCTGACAAATGTCACTCGGAGTCACCTAGTGCAG” here?
A: 3950 fluorescence intensity (a.u.)

Q: For “ACGTAATTATAATTTATTTTATTATGAGTTGTTTTATCACCGGAGTCACCTAGTGCAG”, which binding signal is on record?
A: 3990 fluorescence intensity (a.u.)

Q: “CGTTTTGATAGCGAGGCGTTAGTTCGCTGATCACCCAATCCGGAGTCACCTAGTGCAG” was tested. Which binding signal did it give?
A: 23000 fluorescence intensity (a.u.)

Q: “ATATATATATATATATATATAGACGTATTCCTGTATCCGCCGGAGTCACCTAGTGCAG” was tested. Which binding signal did it give?
A: 4440 fluorescence intensity (a.u.)

Q: How did the binding signal turn out when “CACGCAAACCAACTCGCCACGTAGACTTCTATAAAACCCACGGAGTCACCTAGTGCAG” was run?
A: 9360 fluorescence intensity (a.u.)

Q: “GGAGGGCAGGTGAGGTGAGGTGCGTGTTGTGTGTGTGGGTCGGAGTCACCTAGTGCAG” was tested. Which binding signal did it give?
A: 4160 fluorescence intensity (a.u.)

Q: How did the binding signal turn out when “AAGAAGAAGAGTGACGTGATCCATTCATTCGTTCGTTCACCGGAGTCACCTAGTGCAG” was run?
A: 4880 fluorescence intensity (a.u.)

Q: How did the binding signal turn out when “TTTCTTTGTGTTTTGTTTCCTTGTAGGGTATGCTAGATCTCGGAGTCACCTAGTGCAG” was run?
A: 3410 fluorescence intensity (a.u.)

Q: “TTATATACGCATATACAAAGCTTGCATACGTGTATACAAACGGAGTCACCTAGTGCAG” was tested. Which binding signal did it give?
A: 5680 fluorescence intensity (a.u.)

Q: How did the binding signal turn out when “AGGGGATGGGGATGGGGATGGAGACGGGGACTTGGAACGACGGAGTCACCTAGTGCAG” was run?
A: 3580 fluorescence intensity (a.u.)

Q: “GGCTTTATGCAAGTAACCAGACACGTCTTTTAGCCTTTTCCGGAGTCACCTAGTGCAG” was tested. Which binding signal did it give?
A: 4900 fluorescence intensity (a.u.)

Q: Which binding signal does the source give for “TCGCCAGTATCACTGACGCCGCTGACGAGTCGGAGTCGGACGGAGTCACCTAGTGCAG” here?
A: 4700 fluorescence intensity (a.u.)

Q: With “TAGTTATATTGTTGCCTAGAGGATTTTGGACACGTTTACACGGAGTCACCTAGTGCAG” as the sequence, how does the binding signal read?
A: 3220 fluorescence intensity (a.u.)

Q: How did the binding signal turn out when “GGCGCGTCGTAGCTGACGAGGCTCCCCGTCGTCGCCGTGGCGGAGTCACCTAGTGCAG” was run?
A: 7380 fluorescence intensity (a.u.)

Q: “ACCATGGTCTAACCTACGTGGCATGCCACGTGTGCGTGTGCGGAGTCACCTAGTGCAG” was tested. Which binding signal did it give?
A: 56000 fluorescence intensity (a.u.)

Q: Which binding signal does the source give for “TAGTACGGACTTCAAGACGCAATGTGTGTATGACAGGTGGCGGAGTCACCTAGTGCAG” here?
A: 4200 fluorescence intensity (a.u.)

Q: With “AAATCGGCTCCACCTTCCCTGTCACCATGCTAATCTTTCCCGGAGTCACCTAGTGCAG” as the sequence, how does the binding signal read?
A: 4540 fluorescence intensity (a.u.)

Q: For “GGACCCACGTGGCAGATTTTGGCGCCGCCGCGTCGCCTCTCGGAGTCACCTAGTGCAG”, which binding signal is on record?
A: 17600 fluorescence intensity (a.u.)

Q: Which binding signal does the source give for “GTTTGTCACCCATGAGTCATGACTAGCGTCATGTTGTGTTCGGAGTCACCTAGTGCAG” here?
A: 7660 fluorescence intensity (a.u.)
